In the experiment the target is BTB/POZ domain of human 90K (LGALS3BP, galectin 3 binding protein), residues 124 to 250 (human) (UniProt Q08380). The experiment in a line: crystal structure; human BTB, tag cleaved and deglycosylated, 6 mg/ml in 10 mM Tris pH 8.0, 100 mM NaCl; hanging drop at 293K, 9% PEG 8000, 0.2 M zinc acetate, 0.1 M imidazole pH 6.8; 1 homodimer per asymmetric unit; both purified.

The text below walks through data of PMC6026745.

These are yes or no findings as the source states them, for the method shown. Some binding calls cover weakened binding; strength is not graded here.

B1: BTB/POZ domain of human 90K (LGALS3BP, galectin 3 binding protein), residues 124 to 250 (domain or fragment, UniProt Q08380 124-250)
chain: TNETRSTHTLDLSRELSEALGQIFDSQRGCDLSISVNVQGEDALGFCGHTVILTANLEAQALWKEPGSNVTMSVDAECVPMVRDLLRYFYSRRIDITLSSVKCFHKLASAYGARQLQGYCASLFAIL
As for B1, the binding result is “binds”.
